# PubChem BioAssay AID602313 (National Center for Advancing Translational Sciences (NCATS), 2012)
# About 760 (0.19%) of roughly 390,000 compounds were called active. Inconclusive means that the source gave no clear call. Such entries were picked first, then a sample of the others. The call rests on the fitted dose curve; in most records, active means well fitted inhibition curve with a large enough effect; inconclusive means small, poorly fitted or top-dose-only effect; inactive means flat fitted curve, though single readings scatter. Where the call is inconclusive, the potency comes from a doubtful curve fit.
# Test: qHTS for Inhibitors of Vif-A3F Interactions: qHTS; further: nearly all actives have a fitted effect of over 65% in size
# Settings: HeLa A3F-eYFP + Vif (tagged APOBEC3F with the HIV-1 protein that degrades it), YFP fluorescence increase; series mostly up to 46.1 µM
# Procedure, shortened: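 HeLa cells stably expressing Vif plus C-terminally eYFP-tagged A3F were seeded, incubated overnight at 37 deg C, dosed with compound, incubated overnight again at 37 deg C. Yellow fluorescence (Ex 488/Em 500-530) reported blocked Vif-mediated A3F-eYFP degradation.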
# Potency means the concentration at half of the fitted maximal effect.
row,Structure (SMILES),Potency
1,Nc1ccc2c3c(cccc13)CC2,"inconclusive: 22.4 µM [inhibitor, single point]"
2,CCOC(=O)c1c(-n2c(C)cc(C=C3C(=O)NC(=O)NC3=O)c2C)sc2c1CCCC2,inactive
3,CN1C(=O)C(=Cc2ccc(N3CCOCC3)o2)C(=O)N(C)C1=O,active: 11.2 µM
4,COC(=O)c1c(C)n(Cc2ccccc2)c2ccc(O)cc12,inactive
5,CC12Cc3cn[nH]c3C=C1CCC1C2CCC2(C)C1CCC2(C)O (centres undefined),"inconclusive: 3.16 µM [inhibitor, single point]"
6,CN1CN=C(N[N+](=O)[O-])N(Cc2ccco2)C1,inactive
7,O=C1NC(=O)N(c2cccc(Cl)c2)C(=O)/C1=C\c1ccc(Sc2nc3ccccc3[nH]2)o1,"inconclusive: 28.2 µM [inhibitor, partial curve, poor fit]"
8,O=c1cc(CN2CC=C(c3ccccc3)CC2)c2c(ccc3ccccc32)o1,"inconclusive: 3.16 µM [inhibitor, single point]"
9,CC(=O)C1C(N2CC2)CC2C3CC=C4CC(O)CCC4(C)C3CCC21C (centres undefined),"inconclusive: 35.5 µM [inhibitor, single point]"
10,O=C1NC(=O)N(Cc2ccco2)C(=O)/C1=C\c1ccc(-c2ccc(F)cc2)o1,"inconclusive: 35.5 µM [inhibitor, single point]"
11,CCN(CC)c1ccc(N=Cc2c(O)n(CCC3=CCCCC3)c(=O)[nH]c2=O)cc1,active: 22.4 µM
12,CCOP(=O)(OCC)/C(C#N)=C/c1ccoc1,"inconclusive: 8.91 µM [inhibitor, partial curve, poor fit]"
13,O=C1NC(=O)N(Cc2ccccc2)C(=O)/C1=C\C=C\c1ccco1,"inconclusive: 11.2 µM [inhibitor, partial curve, poor fit]"
14,CN(C)c1ccc(C=C2C(=O)NC(=O)NC2=O)cc1[N+](=O)[O-],inactive
15,CCCCc1nn2c(=O)cc(COC(=O)Cc3ccccc3)nc2s1,inactive
16,O=C1NC(=O)C(=Cc2coc3ccc(O)cc3c2=O)C(=O)N1,inactive
17,O=c1[nH]c(=S)[nH]c(O)c1/C=C1/C=c2ccccc2=N1,"inconclusive: 28.2 µM [inhibitor, single point]"
18,O=C(N/N=C/c1c(O)n(CCc2ccccc2)c(=O)[nH]c1=O)c1ccccc1O,"inconclusive: 17.8 µM [inhibitor, partial curve, poor fit]"
19,Nc1c(C(=O)Nc2ccc(Cl)c(C(F)(F)F)c2)sc2nc3c(cc12)N1CCC3CC1,"inconclusive: 22.4 µM [inhibitor, single point]"
20,CN1C(=O)/C(=C\c2ccc(N3CCCCC3)o2)C(=O)NC1=S,"inconclusive: 20 µM [inhibitor, partial curve, poor fit]"
21,NNc1n[nH]c(=S)n1N,"inconclusive: 3.16 µM [inhibitor, partial curve, poor fit]"
22,COc1ccc(N2C(=O)NC(=O)/C(=C\c3ccc([N+](=O)[O-])s3)C2=O)cc1,"inconclusive: 35.5 µM [inhibitor, single point]"

row,Structure (SMILES),Potency
1,CCCC[N+]12CCC(CC1)C(=C(c1ccccc1)c1ccccc1)C2,inactive
2,COc1cc(N2C(=O)CC(=O)NC2=O)cc(OC)c1OC,"inconclusive: 28.2 µM [inhibitor, partial curve, poor fit]"
3,O=C(c1ccccc1)c1ccc(N=Nc2c(O)[nH]c(=O)[nH]c2=O)cc1,inactive
4,Cc1cc(Cl)ccc1C(=O)C1CCCN(C2CCSCC2)C1 (centres undefined),"inconclusive: 35.5 µM [inhibitor, single point]"
5,CC(=O)Nc1ccc(Cc2nc3ccccc3[nH]2)cc1,"inconclusive: 6.31 µM [inhibitor, single point]"
6,O=C(N/N=C/c1c(O)n(C2CC2)c(=S)[nH]c1=O)c1ccccc1,"inconclusive: 35.5 µM [inhibitor, single point]"
7,Cc1ccc(N2C(=O)NC(=O)/C(=C/c3cnc(-c4ccccc4)nc3)C2=O)cc1C,"inconclusive: 35.5 µM [inhibitor, single point]"
8,COc1ccc(N2C(=O)/C(=C/c3cc(C)n(-c4ccc(C)cn4)c3C)C(=O)NC2=S)c(OC)c1,inactive
9,O=c1[nH]c(O)c(/C=C2/C=CC(c3cc(Cl)ccc3Cl)=N2)c(=O)[nH]1,"inconclusive: 3.16 µM [inhibitor, partial curve, poor fit]"
10,CN1CCC(O)(c2cccs2)C(C(=O)c2cccs2)C1 (centres undefined),inactive
11,CS(=O)(=O)c1ccc(C2=C(CNC(=O)c3cccnc3)[C@H]3CC[C@@H](C2)N3Cc2ccco2)cc1,inactive
12,Cc1nn(-c2ccccc2)c(Cl)c1C1C(C#N)=C(N)Oc2c1c(=O)oc1ccccc21 (centres undefined),inactive
13,Cc1ccc(CNC(=O)c2ccccc2NC(=O)c2nsc3ccccc23)cc1,active: 12.6 µM
14,CCOP(=S)(OCC)Oc1ccc2c(C)c(Cl)c(=O)oc2c1,"inconclusive: 2.82 µM [inhibitor, full curve, poor fit]"
15,CN(C)c1ccc(/C=C/C=C2/C(=O)NC(=O)N(c3ccccc3)C2=O)cc1,active: 7.94 µM
16,CCn1cc(CN2CCCC(C(=O)c3cccc(OC)c3)C2)c(C)n1 (centres undefined),inactive
17,O=C1NC(=S)N(c2ccccc2F)C(=O)/C1=C\c1cccs1,inactive
18,COc1ccc2c(c1)NP(=S)(Oc1ccccc1)N2 (centres undefined),inactive
19,CC/C(=N\NC(=O)c1ccccc1)c1c(O)n(Cc2ccccc2)c(=O)[nH]c1=O,"inconclusive: 31.6 µM [inhibitor, single point]"
20,O=C1NC(=O)N(c2ccc3c(c2)OCO3)C(=O)/C1=C/c1ccc(N2CCCCC2)o1,active: 22.4 µM
21,C/C=C(\C)C(=O)N[C@@H](c1ccccc1)[C@@H](O)C(=O)O[C@H]1C[C@@]2(O)[C@@H](OC(=O)c3ccccc3)C3[C@](C)(C(=O)[C@H](OC(C)=O)C(=C1C)C2(C)C)[C@H](O)C[C@H]1OC[C@@]31OC(C)=O (some centres undefined),inactive
22,Cc1nc2ccccc2c2c1C(=O)N(c1cccc(C(=O)O)c1)C2=O,"inconclusive: 20 µM [inhibitor, single point]"

# 2 consecutive records out of the list so far, quoted:
row,Structure (SMILES),Potency
2,COc1cc(N2C(=O)CC(=O)NC2=O)cc(OC)c1OC,"inconclusive: 28.2 µM [inhibitor, partial curve, poor fit]"
3,O=C(c1ccccc1)c1ccc(N=Nc2c(O)[nH]c(=O)[nH]c2=O)cc1,inactive
